Test results taken from PubChem BioAssay AID504648 (National Center for Advancing Translational Sciences (NCATS), 2011).
The campaign covered roughly 390,000 compounds. About 610 (0.16%) were called active. This list was built around the results that the source calls inconclusive (neither active nor inactive); the mix of calls is not that of the screen. Calls follow the shape of the dose curve; as a rule, active = well fitted inhibition curve with a large enough effect; inconclusive = small, poorly fitted or top-dose-only effect, or effect the other way, or another doubt; inactive = no such curve, though single readings can be large or run the other way. Potencies of inconclusive entries are doubtful fits and often do not repeat.

assay: Nrf2 qHTS screen for inhibitors: counterscreen for cytotoxicity; conditions: A549 ARE-Fluc cells, CellTiter-Fluor viability, 18-24 h; activity change, negative = cytotoxicity: at 46 µM (top of the series)
How it was run: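 A549 ARE-Fluc cells in 5% FBS OPTI-MEM, 5000 cells/well, rested 2 h then exposed to compounds in concentration-response for 18-24 h at 37 °C. Viability by CellTiter-Fluor fluorescence (Ex 405/Em 525) after 30 min; luciferase luminescence (BugLite, 15 min, RT) read afterwards.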
% is scaled to controls: 0 for no effect and ±100 for the full control effect; potency is read from the fitted curve at half-maximal effect.

| SMILES | Potency | activity change, negative = cytotoxicity |
| --- | --- | --- |
| COc1ccc(CCN2CC(C(=O)NCc3ccco3)CC2=O)cc1OC (stereo not drawn) | inconclusive: 7.31 µM [falling, partial curve, poor fit] | – |
| O=C(CN1CCC(C(=O)c2ccc(Cl)cc2)CC1)Nc1ccc2c(c1)OCCO2 | inconclusive: 29.1 µM [falling, partial curve, poor fit] | – |
| CCOc1ccc(-c2cc(OC(=O)c3ccc(OC)cc3)c3c(C)oc(C)c3c(=O)c2)cc1 | – | inactive: 1.11% |
| O=[N+]([O-])c1c(NCCO)cc(Sc2nc3ccccc3s2)c2nonc12 | inconclusive: 29.1 µM [falling, single point] | – |
| Cc1cc(C)nc(NS(=O)(=O)c2ccc(NC(=O)C3(c4ccccc4)CCCC3)cc2)n1 | inconclusive: 29.1 µM [falling, single point] | – |
| O=[N+]([O-])c1ccc(N2N=C(c3ccco3)CC2c2ccccc2)cc1 (stereo not drawn) | inconclusive: 14.6 µM [falling, single point] | – |
| Cc1ccc(S(=O)(=O)N2CCN(CCOc3cccc(C)c3)CC2)cc1 | – | inactive: -6.81% |
| COc1ccccc1-c1cc(SC)c(C#N)c(=O)o1 | inconclusive: 25.9 µM [falling, partial curve, poor fit] | – |
| Cc1ccc(-c2nnc(N3CCN(C(=O)COc4ccccc4)CC3)c3ccccc23)cc1 | inconclusive: 29.1 µM [falling, single point] | – |
| CC(=O)Oc1ccc([C@@H]2COc3c(ccc4c3C=CC(C)(C)O4)C2)c(OC(C)=O)c1 | inconclusive: 29.1 µM [falling, partial curve, poor fit] | – |
| Cc1cc(OCCCC(=O)NCCN2C(=O)S/C(=C\c3cccnc3)C2=O)ccc1Cl | inconclusive: 25.9 µM [falling, partial curve, poor fit] | – |
| CC(=O)Nc1ccc(NC(=O)c2nc(S(=O)(=O)Cc3cccc(C)c3)ncc2Cl)cc1 | inconclusive: 29.1 µM [falling, single point] | – |
| Cc1cc(NC(=O)c2noc3c2CCc2ccccc2-3)no1 | inconclusive: 29.1 µM [activator, single point] | – |
| Cc1sc(NC(=O)CSc2n[nH]c(N)n2)c(C#N)c1C | inconclusive: 14.6 µM [falling, partial curve, poor fit] | – |
| O=c1oc2cc(O)ccc2cc1-c1nc2c(s1)CCc1ccccc1-2 | inconclusive: 18.4 µM [activator, partial curve] | – |
| CC1CCc2c(sc3nc(C4CC4)nc(N4CCN(C(=O)c5ccco5)CC4)c23)C1 (stereo not drawn) | inconclusive: 29.1 µM [falling, single point] | – |
| COc1ccc(-c2c3c(=O)n(C)c(=O)n(C)c3c3c(-c4cccc(C)c4)nc4ccccc4n23)cc1 | inconclusive: 8.2 µM [falling, partial curve, poor fit] | – |
| CCc1ccc(N2CC(C(=O)NC3CC3)CC2=O)cc1 (stereo not drawn) | inconclusive: 6.51 µM [activator, single point] | – |
| COc1c(O)cccc1/C=N/NC(=O)Cn1ccnc1C | – | inactive: 1.29% |
| COc1ccc(C(=O)/C=C/c2cc(C(=O)O)cc3c2OCOC3)c(O)c1 | inconclusive: 18.4 µM [falling, partial curve, poor fit] | – |
| CC(=O)c1c(C)[nH]c(C(=O)OCc2cccc(Cl)c2)c1C | – | inactive: -0.919% |
| COc1ccc(S(=O)(=O)Nc2cccc3cccnc23)cc1 | inconclusive: 29.1 µM [falling, single point] | – |
| O=C(CN1C(=O)NC2(CCCC2)C1=O)OCCOc1ccc(Cl)cc1 | – | inactive: 1.21% |

In another format: results already given
SMILES	Potency	activity change, negative = cytotoxicity
CC(=O)Nc1ccc(NC(=O)c2nc(S(=O)(=O)Cc3cccc(C)c3)ncc2Cl)cc1	inconclusive: 29.1 µM [falling, single point]	–
Cc1cc(NC(=O)c2noc3c2CCc2ccccc2-3)no1	inconclusive: 29.1 µM [activator, single point]	–
Cc1sc(NC(=O)CSc2n[nH]c(N)n2)c(C#N)c1C	inconclusive: 14.6 µM [falling, partial curve, poor fit]	–

Next part

| SMILES | Potency | activity change, negative = cytotoxicity |
| --- | --- | --- |
| CC(C)(C)c1nnc(NC(=O)C2CCN(C(=O)c3ccco3)CC2)s1 | – | inactive: -1.17% |
| CCS(=O)(=O)c1ncc(Cl)c(C(=O)Nc2ccc(C)cc2)n1 | inconclusive: 20.6 µM [falling, single point] | – |
| CC(C)(C)OC(=O)NCCCCCNC(=O)c1[nH]cnc1C(=O)Nc1ccc(Cl)cc1 | inconclusive: 29.1 µM [falling, single point] | – |
| CCCn1cc(SCC(=O)NCC2CCCO2)c2ccccc21 (stereo not drawn) | inconclusive: 29.1 µM [activator, single point] | – |
| COC(=O)c1nc(N2CCN(S(=O)(=O)c3ccc(C)cc3)CC2)c2ccccc2n1 | – | inactive: 0.863% |
| O=C(O)c1ccc(COc2ccccc2/C=C2\NC(=O)N(Cc3ccccc3)C2=O)cc1 | – | inactive: -4.4% |
| Cc1ccn2c(Nc3ccc4c(c3)OCO4)c(-c3ccc(N(C)C)cc3)nc2c1 | – | inactive: -13.6% |
| O=C(CC1NCCNC1=O)OCc1ccccc1 (stereo not drawn) | inconclusive: 6.51 µM [activator, partial curve, poor fit] | – |
| O=[N+]([O-])c1cc(Cl)cc2c1nc(NCCO)c1ccccc12 | inconclusive: 5.17 µM [falling, partial curve] | – |
| O=C(Nc1ccc(F)cc1)N1CCC(c2nc3c(nnn3Cc3cccc(Cl)c3)c(=O)[nH]2)CC1 | inconclusive: 29.1 µM [falling, single point] | – |
| CCN(CC)c1nc(C#N)nc(N2CCOCC2)n1 | – | inactive: -3.49% |
| CCn1nc(C(=O)NCCc2ccc(S(N)(=O)=O)cc2)c2ccccc2c1=O | inconclusive: 32.6 µM [activator, partial curve, poor fit] | – |
| Cc1ccc(-c2cn3nc(C)c(C)nc3n2)cc1 | inconclusive: 11.6 µM [activator, partial curve] | – |
| Cc1ccc(-n2c(=O)c3c4c(sc3n(Cc3cccc(Cl)c3)c2=O)CCC4)cc1C | – | inactive: 0% |
| O=C1c2ccc(Oc3ccc([N+](=O)[O-])cc3)cc2C(=O)N1CCCO | – | inactive: 3.97% |
| COc1cc2cc(C(=O)N3CCN(Cc4ccc5c(c4)OCO5)CC3)[nH]c2cc1OC | inconclusive: 25.9 µM [falling, single point] | – |
| Cc1cc(Br)ccc1SCC(=O)OC/C(O)=C(\C#N)c1nc2ccccc2[nH]1 | inconclusive: 29.1 µM [falling, single point] | – |
| CCN(CC)CCCNC(=O)CSc1c2c(nc3cc(Cl)ccc13)CCCC2 | inconclusive: 32.6 µM [falling, partial curve, poor fit] | – |
| Cc1c(C(=O)Nc2cccc(C(F)(F)F)c2)sc2nc3n(c(=O)c12)CCCC3 | inconclusive: 18.4 µM [activator, single point] | – |
| O=C(CSc1ncc(-c2ccccc2)n1-c1ccccc1)NCc1ccco1 | inconclusive: 6.51 µM [activator, single point] | – |
| N/C(=N\OC(=O)COc1ccc(Cl)cc1Cl)c1cccnc1 | inconclusive: 23.1 µM [activator, partial curve, poor fit] | – |
| COc1cc2nc(/C=C/c3cc(OC)c(OC)c(OC)c3)sc2cc1SC | inconclusive: 14.6 µM [activator, partial curve, poor fit] | – |
| CN(C)CCCN(C(=O)c1cccs1)c1nc(-c2ccccc2)cs1 | inconclusive: 23.1 µM [falling, single point] | – |

| SMILES | Potency | activity change, negative = cytotoxicity |
| --- | --- | --- |
| O=C1C(=O)N(c2nccs2)C(c2ccccc2F)/C1=C(\O)c1ccc2c(c1)OCCO2 (stereo not drawn) | inconclusive: 25.9 µM [falling, single point] | – |
| CCCCn1nnc(NC(=S)NC(=O)c2ccc(OCC)c([N+](=O)[O-])c2)n1 | – | inactive: -10.5% |
| COc1ccccc1/C=C1\SC(=S)N(CCC(=O)NCCCN2CCOCC2)C1=O | active: 23.1 µM | – |
| Fc1cnc(N/N=C/c2ccc(-c3ccc(Br)cc3)o2)nc1N1CCOCC1 | – | inactive: -0.0433% |
| CCCSc1nsc(NC(=O)C(c2ccccc2)c2ccccc2)n1 | inconclusive: 18.4 µM [falling, single point] | – |
| COc1ccc(-c2c3c(cc(C)[n+]2[O-])oc2ccc(OC)cc23)cc1 | inconclusive: 16.4 µM [falling, partial curve] | – |
| CC[C@]12c3[nH]c4ccc(OC)cc4c3CCN1C(=O)C(CC(=O)NCC13CC4CC(CC(C4)C1)C3)C[C@@H]2C(=O)N1CCN(C(=O)C2CC2)CC1 (stereo partly drawn) | inconclusive: 14.6 µM [falling, partial curve, poor fit] | – |
| O=C(/C=C/c1cccs1)c1cc(Cl)ccc1O | – | inactive: -4.83% |
| COC(=O)COn1c(SC(C)C)nc2ccccc2c1=O | inconclusive: 20.6 µM [activator, partial curve, poor fit] | – |
| Cc1ccc(CNc2ncnc3c2nnn3C)cc1 | – | inactive: 1.25% |
| CC(=O)c1sc(NCCOc2ccc(C)cc2)nc1C | inconclusive: 9.2 µM [falling, partial curve, poor fit] | – |
| O=C(NCCN1CCN(Cc2ccc([N+](=O)[O-])cc2)CC1)C(=O)Nc1ccccc1 | – | inactive: -4.86% |
| Cc1c(C(=O)Nc2ccc(C(C)C)cc2)sc2nc3n(c(=O)c12)CCC3 | – | inactive: 10.9% |
| CC(=O)c1sc(Nc2ccccn2)nc1C | – | inactive: 14.3% |
| COc1cccc(OC2=NS(=O)(=O)c3ccccc32)c1 | – | inactive: 8.49% [at 65.3 µM] |
| COc1ccc(/C=C2\SC(=S)N(CCC(=O)N(CCO)Cc3ccccc3)C2=O)cc1OC | inconclusive: 20.6 µM [falling, single point] | – |
| COc1cc(/C=C2/CCC/C(=C\c3cc(O)c(OC)c(Cl)c3)C2=O)cc(Cl)c1O | inconclusive: 18.4 µM [falling, single point] | – |
| Cc1cc(C)nc(N/N=C/c2ccc([N+](=O)[O-])o2)n1 | inconclusive: 18.4 µM [falling, partial curve, poor fit] | – |
| COC(=O)N/N=C/c1ccc([N+](=O)[O-])s1 | active: 10.3 µM | – |
| Cc1ccc(-c2cc(C(=O)Nc3cccnc3)c3ccccc3n2)s1 | – | inactive: -16.3% |
| O=C(Nn1cnnc1)c1ccncc1 | inconclusive: 1.84 µM [falling, partial curve, poor fit] | – |
| O=C(Nc1ccc2c(c1)N(Cc1ccccc1)C(=O)c1ccccc1S2)NC1CC1 | inconclusive: 25.9 µM [falling, single point] | – |
